Experimental data published in PMC8225760, “Residue 6.43 defines receptor function in class F GPCRs” (Nature Communications, 2021).
No constants are given. Whether binding was seen depends on the method and setting. In cells and extracts the contact can be indirect. Some results given as binding are weak or reduced against the parent protein; the word gives no strength. Tags and fused reporters may be left off the sequences shown.

Biological target: T1, SNAP-FZD6 (wild-type) (UniProt O60353)
T1 sequence: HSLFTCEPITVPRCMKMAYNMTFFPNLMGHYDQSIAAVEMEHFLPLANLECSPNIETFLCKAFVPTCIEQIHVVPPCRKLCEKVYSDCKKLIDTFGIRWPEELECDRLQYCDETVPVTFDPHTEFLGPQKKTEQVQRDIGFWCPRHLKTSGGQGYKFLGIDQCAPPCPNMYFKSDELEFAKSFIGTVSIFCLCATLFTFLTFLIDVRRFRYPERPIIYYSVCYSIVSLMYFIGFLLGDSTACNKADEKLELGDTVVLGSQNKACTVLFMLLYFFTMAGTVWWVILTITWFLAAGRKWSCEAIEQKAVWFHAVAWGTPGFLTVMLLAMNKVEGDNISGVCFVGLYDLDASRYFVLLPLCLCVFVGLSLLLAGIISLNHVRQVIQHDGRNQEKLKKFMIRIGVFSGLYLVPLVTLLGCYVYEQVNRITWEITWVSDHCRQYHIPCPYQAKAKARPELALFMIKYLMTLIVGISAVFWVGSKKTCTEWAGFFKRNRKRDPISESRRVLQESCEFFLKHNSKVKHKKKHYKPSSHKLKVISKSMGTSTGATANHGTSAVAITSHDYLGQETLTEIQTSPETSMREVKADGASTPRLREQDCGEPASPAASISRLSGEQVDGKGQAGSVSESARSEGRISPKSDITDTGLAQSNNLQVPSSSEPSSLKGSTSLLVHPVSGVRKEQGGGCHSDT
Assay: FRET or BRET; bystander BRET between Nluc-DEP and Venus-KRas in living ΔFZD1-10 HEK293T cells with 0-480 ng SNAP-tagged receptor plasmid; BRET plotted over the SNAP surface signal; in the presence of C59

binding: binds
B1: Nluc-DEP (Nluc-tagged DEP domain of DVL2) (domain or fragment, UniProt O14641 433-507)
chain: PESGLEVRDRMWLKITIPNAFLGSDVVDWLYHHVEGFPERREARKYASGLLKAGLIRHTVNKITFSEQCYYVFGD
